Drawing on patent publication US20240024505A1, this text covers binding for one substance.

Sequences of proteins named here, by UniProt entry; tags and fusion partners are left off. Residues count along the entry.
UniProt P05019, residues 49-118: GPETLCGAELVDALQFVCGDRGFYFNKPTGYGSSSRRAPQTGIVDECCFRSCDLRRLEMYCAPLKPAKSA
UniProt P17936, residues 28-291: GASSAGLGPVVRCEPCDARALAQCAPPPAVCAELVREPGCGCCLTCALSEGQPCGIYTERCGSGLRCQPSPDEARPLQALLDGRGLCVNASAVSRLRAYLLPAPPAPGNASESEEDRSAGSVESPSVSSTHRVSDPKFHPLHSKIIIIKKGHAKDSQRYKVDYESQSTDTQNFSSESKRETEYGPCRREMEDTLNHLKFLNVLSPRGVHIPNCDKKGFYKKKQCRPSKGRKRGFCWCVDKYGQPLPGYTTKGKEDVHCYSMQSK

No constants are given. Whether binding was seen depends on the method and setting. Some entries that bind do so weakly or less than the wild type.

Assay [1] deals with recombinant IGF-1 (UniProt P05019). The assay can be described thus: sandwich ELISA for free IGF-1 (FIG. 4D legend). A general note: In an ELISA, binding on a coated surface is turned into a signal by an enzyme label.
For assay [2] the target is unchanged. Nature of the assay: sandwich ELISA for free IGF-1 after incubation of recombinant IGFBP-3 with IGF-1, with and without PAPPA2.

Take “recombinant IGFBP-3 (from UniProt P17936 28-291)”: the binding entry in assay [1] and in assay [2] was “binds” in each case.
